Measurements from PMC10153752, “Exo1 protects DNA nicks from ligation to promote crossover formation during meiosis”.

Columns and labels:
[1] = target: T1, exo1-D173A (Saccharomyces cerevisiae) (UniProt P39875); assay: filter binding; conditions: no added metal, 0.01 mM EDTA, 15 nM DNA, 35 mM NaCl, 20 mM Tris pH 7.5, 0.04 mg/ml BSA, 0.1 mM DTT, 60 ul, 10 min at 30 C, KOH-treated nitrocellulose filter binding, recombinant protein, protein details: FLAG, label: 5'-32P on AO3144 (8% labeled)
T1 sequence (looked up, limits assumed): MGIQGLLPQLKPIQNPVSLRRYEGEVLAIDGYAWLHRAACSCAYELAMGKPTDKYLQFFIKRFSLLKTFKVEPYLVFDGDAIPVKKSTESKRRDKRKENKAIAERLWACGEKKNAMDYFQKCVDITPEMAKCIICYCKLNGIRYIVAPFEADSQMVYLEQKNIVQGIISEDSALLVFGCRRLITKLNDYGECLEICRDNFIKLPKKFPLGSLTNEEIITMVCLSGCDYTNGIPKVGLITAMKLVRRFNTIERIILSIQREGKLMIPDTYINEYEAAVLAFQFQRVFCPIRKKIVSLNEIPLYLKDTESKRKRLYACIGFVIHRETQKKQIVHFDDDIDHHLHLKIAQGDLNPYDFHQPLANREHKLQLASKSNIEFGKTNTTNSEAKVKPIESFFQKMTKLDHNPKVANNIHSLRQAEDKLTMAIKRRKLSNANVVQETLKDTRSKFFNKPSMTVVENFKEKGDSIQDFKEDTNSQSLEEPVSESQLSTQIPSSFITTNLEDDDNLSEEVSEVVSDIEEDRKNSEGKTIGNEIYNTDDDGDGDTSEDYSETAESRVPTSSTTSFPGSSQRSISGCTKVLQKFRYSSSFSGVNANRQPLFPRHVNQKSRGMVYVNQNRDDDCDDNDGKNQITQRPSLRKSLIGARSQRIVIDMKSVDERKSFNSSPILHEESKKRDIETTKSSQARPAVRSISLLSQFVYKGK

[2] = target: T2, exo1-D173A,G236D (Saccharomyces cerevisiae) (UniProt P39875); assay: filter binding; conditions: no added metal, 0.01 mM EDTA, very weak binding, 15 nM DNA, 35 mM NaCl, 20 mM Tris pH 7.5, 0.04 mg/ml BSA, 0.1 mM DTT, 60 ul, 10 min at 30 C, KOH-treated nitrocellulose filter binding, recombinant protein, protein details: FLAG, label: 5'-32P on AO3144 (8% labeled)
T2 sequence (looked up, limits assumed): T1 sequence (looked up, limits assumed) with G236D

Sequence	binding result [1]	binding result [2]
ACAGCTACCGAATTCTGACTTGCTAGGACATCTTTGCCCACGTTGACCC / GGGTCAACGTGGGCAAAGATGTCCTAGCAAGTCAGAATTCGGTAGCGTG [homoduplex (AO3878 annealed to AO3144)]	binds more weakly	binds more weakly
ACAGCTACCGAATTCTGACTTGCTAGGACATCTTTGCCCACGTTGACCC / TCGATAGTCTCTAGATAGCATGTCCTAGCAAGTCAGAATTCGGTAGCGTG / GGGTCAACGTGGGCAAAG [19 nt 5' flap substrate (AO3145 + AO3940 annealed to AO3144)]	–	binds more weakly

Residue numbers refer to the chain shown, from its start. Construct, isoform or probe ends are uncertain for at least one entry. A weaker result is weaker than the reference pair of the same experiment. For part of these data: At least one verdict was read from the data and is not stated in words by the source. Tags and fusion partners may be left off the protein sequences shown.
